Source: PubChem BioAssay AID493014 (National Center for Advancing Translational Sciences (NCATS), 2011)
The other results are listed elsewhere or left out. Shown are side measurements of this screen, not its main read-out; they come without a call. The list favours compounds with an active or inconclusive main result. Words in brackets tell the shape of the fitted curve; partial curves, single points and poor fits give uncertain potencies.

Test: qHTS Assay to Find Inhibitors of Chronic Active B-Cell Receptor Signaling
Settings: ABC-DLBCL IkBa-CBG/CBR reporter, luminescence ratio (green luciferase fused to IkBa over red control in TMD8 lymphoma cells), 4 h
Outline: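 TMD8 human ABC-DLBCL cells with doxycycline-inducible IκBα–green luciferase fusion and unfused red luciferase, in 0.5% FBS medium; compounds up to 46 uM, 4 h at 37C. Green/red luminescence ratio, filter-overlap corrected, fitted to concentration-response curves.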

[1] = measured here: CBR red luminescence, cell number

| Compound | AC50 [1] | AC50 (measured here: IkBa-CBG green luminescence) |
| --- | --- | --- |
| CCn1c(=O)c([N+](=O)[O-])c(NCCN(C)C)c2ccccc21 | 3.98 µM [falling, single point] |  |
| COc1ccc(CNC(=O)CN2C(=O)CSc3ccc(S(=O)(=O)N4CCOCC4)cc32)c(OC)c1 | 11.2 µM [rising, partial curve, poor fit] |  |
| CC(NC(=O)c1ccc(CS(=O)(=O)c2ccc(Cl)cc2)o1)c1ccc2c(c1)OCCO2 (stereo not drawn) | 16.4 µM [falling, single point] |  |
| COc1ccc(NC(=O)c2ccco2)cc1NC(=O)COc1ccccc1 | 0.562 µM [rising, full curve, poor fit] |  |
| CCOC(=O)c1ccc(NC(=O)c2c(NCc3cccs3)sc3c2CCCC3)cc1 | 2.51 µM [falling, full curve] |  |
| CC(/C=N/NC(=O)c1cccnc1)=C\c1ccccc1 | 20 µM [falling, partial curve, poor fit] |  |
| COCC1CCCN(Cc2cn(Cc3ccccc3)nc2-c2cc3ccccc3o2)C1 (stereo not drawn) | 35.5 µM [falling, single point] |  |
| Cc1ccc(C2=NN(CC(=O)NCCC(C)C)C(=O)CC2)cc1 | 5.62 µM [falling, single point] | 3.55 µM [rising, single point] |
| COC(=O)/C(C#N)=C/c1c(Oc2cccc(C)c2C)nc2ccccn2c1=O | 10 µM [rising, partial curve, poor fit] |  |
| Cc1nnc(Nc2ccc3c(c2)ncn3C)c2ccccc12 | 2.51 µM [falling, partial curve, poor fit] |  |
| O=c1ccnc(SCCc2ccccc2)[nH]1 | 22.4 µM [falling, single point] |  |
| CCOCC(=O)Nc1cc(S(=O)(=O)N2CCOCC2)ccc1N1CCCCC1 | 2.24 µM [rising, partial curve, poor fit] |  |
| Cc1ccn2c(C(=O)N/N=C\c3cccs3)c(C)nc2c1 | 6.51 µM [rising, partial curve, poor fit] |  |
| O=C(Nc1ccc(S(=O)(=O)Nc2ncccn2)cc1)c1ccc2ncsc2c1 | 15.8 µM [falling, partial curve] |  |
| O=C(OCc1cc(=O)n2ccsc2n1)c1ccccc1NCCO | 6.51 µM [falling, partial curve, poor fit] |  |
| CC1(C)C(=O)CC[C@@]2(C)[C@H]1CC[C@@]1(C)CC3=C(CC[C@@H]12)[C@@]1(C)CCC(=O)C(C)(C)[C@@H]1CC3 | 32.6 µM [falling, partial curve, poor fit] |  |
| CCOC(=O)c1sc(NC(=O)c2ccc(S(=O)(=O)N3CCOCC3)cc2)nc1-c1ccccc1 | 2.59 µM [falling, full curve] |  |

Part of the list above in another layout:
Compound	AC50 [1]	AC50 (measured here: IkBa-CBG green luminescence)
CC(NC(=O)c1ccc(CS(=O)(=O)c2ccc(Cl)cc2)o1)c1ccc2c(c1)OCCO2 (stereo not drawn)	16.4 µM [falling, single point]	
COc1ccc(NC(=O)c2ccco2)cc1NC(=O)COc1ccccc1	0.562 µM [rising, full curve, poor fit]	
CCOC(=O)c1ccc(NC(=O)c2c(NCc3cccs3)sc3c2CCCC3)cc1	2.51 µM [falling, full curve]	
CC(/C=N/NC(=O)c1cccnc1)=C\c1ccccc1	20 µM [falling, partial curve, poor fit]	
COCC1CCCN(Cc2cn(Cc3ccccc3)nc2-c2cc3ccccc3o2)C1 (stereo not drawn)	35.5 µM [falling, single point]	
